Experimental data: PubChem BioAssay AID1671195 (Yale University, 2021)
Here is a random part of about 22,000 deposited reagents. Of all reagents, about 1,510 (6.9%) were called active. 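Active includes knockdowns raising or lowering LDL uptake; positive z-scores mean more uptake, negative mean less.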 Unmarked entries are inactive. Reagents against one gene are numbered here.

Purpose: 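Regulators of LDL receptor activity judged by labelled LDL uptake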 (primary screen)
System: human Huh7 hepatoma cells
Knock-down reagent: siRNA pool against human genes, 18 nM
Time to read-out: about 2 to 2.5 days of knockdown, then 8 h LDL uptake
Challenge: DiI-labelled LDL at 30 µg/ml for 8 h, in lipoprotein-deficient serum medium
Measurement: 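Fluorescent LDL signal imaged in cells, scaled to the plate median, robust z-score for each replicate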
Direction: robust z-score: higher = more LDL uptake after knockdown
Call rule: 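Active when two or more replicates show a robust z-score above 2 or below -2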

no.	gene	pool no.	robust z-score, replicate 1	robust z-score, replicate 2	robust z-score, replicate 3
1	LANCL2	1	-0.817	-0.369	-1.27
2	IGF2BP1	1	1.56	0.172	0.25
3	TGFBI	1	0.619	0.268	1.11
4	RPL17P20	1	-0.477	-0.516	-0.553
5	MRC1	1	0.608	0.779	0.406
6	IQCF6	1	0.248	-0.444	-0.483
7	IRF9	1	0.802	0.147	-0.697
8	PEX11G	1	0.037	0.575	0.759
9	H6PD	1	-0.336	-0.255	-0.319
10	TWIST2	1	-0.447	-0.302	-1.82
11	TRAP1	1	1.94 (active)	1.88	2.26
12	AP2A2	1	-0.354	-0.317	0.151
13	CNIH1	1	1.05	1.42	0.977
14	FGF6	1	0.784	-1.12	0.0188
15	AMIGO3	1	-0.405	-0.445	-0.0301
16	STX17	1	-0.186	2.39	-1.03
17	ANKRD52	1	0.286	0.539	0.704
18	SENP5	1	-0.3	-0.572	0.385
19	LOC440706 (retired record)	1	-0.513	-0.302	-0.486
20	SETMAR	1	-0.716	0.702	0.71
21	UBAP2	1	1.92	-0.578	1.07
22	FAM66E	1	0.309	0.393	0.137
23	HAO1	1	0.777	0.713	1.14
24	PATZ1	1	-2.05 (active)	-2.18	-2
25	WNK1	1	5.21 (active)	4.87	7.48
26	WNK1	2	0.708	0.573	0.299
27	SLC25A48-AS1	1	-0.181	-0.35	-0.473
28	NKD2	1	-0.163	-0.536	-0.824
29	POU2AF3	1	-0.196	-0.211	-1.08
30	LOC286080 (retired record)	1	1.26	1.03	0.79
31	NKX6-2	1	0.851	-0.0653	1.72
32	MED18	1	0.878	-0.225	4
33	HEYL	1	-1.81	1.19	-1.21
34	CRYGA	1	-0.0212	0.963	0.519
35	DPPA5P4	1	0.712	0.649	1.29
36	C14orf93	1	0.475	0.921	1.22
37	KRTAP13-3	1	-0.592	-0.927	-0.903
38	FBXO44	1	1.16	1.03	1.33
39	LOC284964 (retired record)	1	1.6	1.15	0.782
40	LMCD1	1	-2.44	-0.338	-0.73
41	SLC15A1	1	-1.12	-1.17	-1.31
42	DIP2B	1	0.463	0.43	0.164
43	SSPOP	1	2.14	-0.675	1.67
44	CDH23	1	-1.12	-1.25	-1.19
45	NLRP14	1	-0.671	-0.626	-0.787
46	PAX5	1	-1.46	-1.25	-0.865
47	TYW3	1	-0.989	-0.888	-0.554
48	CLMP	1	0.529	0.474	0.478
49	ZFX	1	0.845	0.621	0.311
50	ZNF32	1	-0.195	-0.386	0.0693
51	PHACTR2-AS1	1	-0.321	-0.0331	-0.103
52	PLOD2	1	-0.852	-0.692	-0.605
53	DOCK7	1	0.256	0.969	0.235
54	DTWD1	1	0.0152	0.172	-0.64
55	ITPRIPL1	1	-0.784	0.216	-1.14

6 of these entries, reformatted.
gene,pool no.,"robust z-score, replicate 1","robust z-score, replicate 2","robust z-score, replicate 3"
MRC1,1,0.608,0.779,0.406
IQCF6,1,0.248,-0.444,-0.483
IRF9,1,0.802,0.147,-0.697
PEX11G,1,0.037,0.575,0.759
H6PD,1,-0.336,-0.255,-0.319
TWIST2,1,-0.447,-0.302,-1.82

The list goes on.
no.	gene	pool no.	robust z-score, replicate 1	robust z-score, replicate 2	robust z-score, replicate 3
56	KIAA0492 (retired record)	1	1.35	0.325	-0.668
57	LINC01242	1	1.48	1.34	2
58	DIRAS1	1	-1.31	-1.21	-1.35
59	LINC02687	1	0.136	-0.676	-0.601
60	PHACTR4	1	-0.0161	0.116	0.289
61	TRIM25	1	-0.272	-1.29	0.259
62	PRKACB	1	-2.09 (active)	-2	-2.2
63	POMT1	1	-1.19	-1.3	-0.655
64	EIF2S1	1	2.66 (active)	3.26	2.59
65	SUGT1P4-STRA6LP-CCDC180	1	2.18	-0.172	-0.567
66	LGALSL	1	-0.0664	0.588	0.332
67	PRKACG	1	-0.116	0.726	1.04
68	LOC442371 (retired record)	1	0.359	1.2	0.451
69	TRIM43	1	1.01	-0.592	0.5
70	LOC128939 (retired record)	1	0.917	0.57	-0.187
71	SLC17A7	1	2.41 (active)	2.08	1.26
72	CYB561D1	1	1.9 (active)	1.68	2.1
73	LOC400125 (retired record)	1	0.305	-0.879	-0.799
74	TM2D1	1	-0.373	-0.771	0.316
75	TAS2R43	1	-0.0898	-0.00596	0.0855
76	COBLP1	1	-0.541	1.21	0.415
77	MTUS2	1	0.507	-1.63	-0.0548
78	IKZF5	1	-0.787	-1.39	-0.245
79	YKT6P1	1	0.408	-0.03	0.278
80	RAVER2	1	1.41	0.885	-0.751
81	FSIP1	1	0.418	2.05	1.7
82	SV2B	1	0.188	0.569	0.401
83	LOC441098 (retired record)	1	-1.07	-1.32	-1.52
84	IL10	1	1.19	1.71	1.5
85	LOC441462 (retired record)	1	1.19	0.584	0.835
86	SSTR5	1	0.11	-0.477	0.0326
87	SYNCRIP	1	0.228	0.9	0.448
